Assay results as given in article PMC11132075.
These are yes or no findings as the source states them, for the method shown. Binding seen in cells or lysates may run through a third protein.

Amino acid sequences for entries named in this document (tags omitted).
UniProt D4A9L2: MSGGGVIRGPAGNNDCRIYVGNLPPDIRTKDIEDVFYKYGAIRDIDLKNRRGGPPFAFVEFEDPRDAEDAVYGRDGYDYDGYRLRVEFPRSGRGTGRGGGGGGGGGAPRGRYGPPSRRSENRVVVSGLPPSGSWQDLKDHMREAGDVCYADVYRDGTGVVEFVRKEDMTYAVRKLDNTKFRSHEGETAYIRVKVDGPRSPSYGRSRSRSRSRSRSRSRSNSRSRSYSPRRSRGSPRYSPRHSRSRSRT
UniProt Q9JK66: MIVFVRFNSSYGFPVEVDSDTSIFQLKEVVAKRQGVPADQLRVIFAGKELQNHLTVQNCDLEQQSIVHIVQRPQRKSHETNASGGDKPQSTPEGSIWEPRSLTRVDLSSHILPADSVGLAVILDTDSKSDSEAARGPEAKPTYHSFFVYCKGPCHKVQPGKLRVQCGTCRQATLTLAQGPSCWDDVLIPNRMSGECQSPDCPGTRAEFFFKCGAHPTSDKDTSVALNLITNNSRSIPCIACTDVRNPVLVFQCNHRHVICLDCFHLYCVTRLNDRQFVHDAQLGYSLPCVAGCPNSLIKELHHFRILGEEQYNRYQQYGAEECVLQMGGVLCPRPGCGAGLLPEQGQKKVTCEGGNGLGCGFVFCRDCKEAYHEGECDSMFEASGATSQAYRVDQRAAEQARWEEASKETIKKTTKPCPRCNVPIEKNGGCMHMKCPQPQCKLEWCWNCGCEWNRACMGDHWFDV

Target: serine- and arginine-rich splicing factor 1 (Srsf1) (rat (endogenous in rat primary chondrocytes)) (UniProt D4A9L2)
Assay: co-IP; Co-IP in rat primary chondrocytes; which protein was precipitated is not told; cells also treated with prednisolone (said to promote BTRC binding to Srsf1)

| binding | Molecule |
| --- | --- |
| no binding | parkin RBR E3 ubiquitin-protein ligase (PARK2) (from UniProt Q9JK66 1-465) (enzyme) |
| no binding | ring finger protein 125 (RNF125) (enzyme, UniProt A0A9K3Y7V2 1-233) MGSLLSSDSSKSAPTSSARRTLERSGDPELPITSFDCSVCLEVLHQPVRTRCGHVFCRSCIATSIKNNNKWTCPYCRAYLPSEGVPATDIAKRMKSEYQNCTECGTLVCLSDMRAHIRTCEKYIDKYGPLQELGETTARCVCPFCQRELDEDCLLDHCIIHHRSERRPVFCPLCHSQPNESPSTFSGSLIRHLQVSHTLFYDDFIDFDIIEEAIIRRVLDRSLLEYVNQSNTT |
